Patent publication US10058577B2, “Thermo-stable strains, products and methods thereof” (TRIPHASE PHARMACEUTICALS PVT. LTD., priority 2014, dated 2018)

System: Lactobacillus acidophilus TSP-La1
Assay: Antibiotic susceptibility by disk diffusion method
Type: cell-based
Description: In order to ascertain the sensitivity of the thermostable strains in the food products towards antibiotics, Antibiotic susceptibility profile for Lactobacillus acidophilus is created by disk diffusion method. The susceptibility criteria used is established by Charteris et al. The Lactobacillus acidophilus is grown in Man Rogosa Sharpe Agar (MRSA).
67.15 grams is suspended in 1000 ml distilled water and heated to boiling to dissolve the medium completely. It is sterilized by autoclaving at 15 lbs pressure (121° C.) for 20 minutes, mixed well and poured into sterile Petri plates.
The table below depicts the results carried out for a list of common antibiotics. The concentration of the tested antibiotics has been included depending upon their minimum inhibitory concentrations.

## O=C(O)c1cn(C2CC2)c2cc(N3CCNCC3)c(F)cc2c1=O [Ciprofloxacin]
10 μg
  Resistant/Sensitive: Sensitive
Lactobacillus acidophilus, TSPLA1, 10 μg, read-out: MIC Results
  zone of inhibition at 10 µg/disc: 22 mm
